Measured values published in patent publication US9913914B2, “Cell transport” (priority 2013, dated 2018).
Some of these results come from one statement about several compounds together.

Test system: Dictyostelium discoideum amoeba cells
Format: cell-based
Conditions: FITC-labelled peptide at 20 micromolar
Procedure: Peptides were labelled with Fluorescein isothiocyanate (FITC) using a FITC labeling kit as per instructions (Pierce, UK). When added to cell cultures the labeled peptides were visualized using a fluorescent microscope by exciting the FITC with a 488 nm spectral line, argon-ion laser (Excitation wavelength of 494 nm and an Emission wavelength of 518 nm).
AX2 wild type Dictyostelium cells were grown on SM agar plates seeded with Aerobacter aerogenes bacteria (also known as Klebsiella aerogenes) as a food source.
Cupid A ([…]; SEQ ID NO: 2) and Cupid B ([…]; SEQ ID NO: 1) were chemically synthesized labelled with FITC at the amino terminal. The peptides were added to cultured eukaryotic cells of Dictyostelium discoideum amoeba for varying amounts of time up to 2 hours. Cells were then washed and prepared for examination under a fluorescent microscope (FIG. 1). The time courses of permeation were compared to the class 3 CPP, the Antennapedia peptide, pANT which was also labelled with FITC in chemical synthesis (FIG. 2).

Substance: FITC-Cupid B: Cupid B (SEQ ID NO: 1) chemically synthesized, labelled with FITC at the amino terminal (RRVQIWFQNKRAKVKR; N-terminal FITC; listed as Dictyostelium discoideum)
- time until peptide becomes visible in cells: ≤ 30 min
- time until uptake reached a maximum: ≤ 100 min

Substance: FITC-Cupid A: Cupid A (SEQ ID NO: 2) chemically synthesized, labelled with FITC at the amino terminal (RSVQIWFQNRRAKAR; N-terminal FITC; listed as Dictyostelium discoideum)
- time until peptide becomes visible in cells: ≤ 30 min
- time until uptake reached a maximum: ≤ 100 min
